# Data published in patent US12377112B2, “Methods of treating neurocognitive disorders, chronic pain and reducing inflammation” (priority 2019, dated 2025).
# Entries after “also recorded” stand apart in the source; their conditions may differ. At least one structure is not confirmed: it was looked up by name or label, or the drawing left a doubt.
# Columns and labels:
# [1] = tested on: healthy psychedelic-naïve participants; assay: Healthy volunteer study: social connectedness scale; format: in vivo, human; conditions: 25 mg
# healthy subjects [2] = assay: Phase 1 study: ERT, OTS, IED, verbal fluency, digit span forward; format: in vivo, human
# healthy subjects [3] = assay: Phase 1 study: NEO-FFI and SCL-90; format: in vivo, human; conditions: Day 7 or Day 84
# rats = assay: CCK-4 induced panic anxiety, elevated plus-maze; format: in vivo, rat
# healthy subjects [4] = assay: Phase 1 study: Five Dimension Altered States of Consciousness questionnaire (5D-ASC); format: in vivo, human
# Source text: In some embodiments, the Five Dimension Altered States of Consciousness questionnaire (5D-ASC) is utilized to evaluate the safety and/or efficacy of psilocybin. […] The 5 dimensions include oceanic boundlessness, anxious ego dissolution, visionary restructuralization, auditory alterations and reduction of vigilance.
# [5] = tested on: healthy psychedelic-naïve participants; assay: Healthy volunteer study: fMRI emotional faces task, left amygdala; format: in vivo, human
# aged male C57B16 mice = assay: Age-induced cognitive deficits, T-maze alternation test; format: in vivo, mouse
# male CD-1 mice = assay: Scopolamine-induced cognitive dysfunction, T-maze spontaneous alternation; format: in vivo, mouse
# healthy subjects [6] = assay: Phase 1 study: Positive and Negative Affect Schedule (PANAS); format: in vivo, human
# Source text: In some embodiments, the Positive and Negative Affect Schedule (PANAS) is used to evaluate the safety and/or efficacy of psilocybin. The PANAS measures the acute emotional drug effects and comprises 2 mood scales that measure positive and negative affect. Positive affect refers to the propensity to experience positive emotions and interact with others positively. Negative affect involves experiencing the world in a more negative way. Subjects respond to 10 questions associated with negative affect and 10 questions associated with positive affect. The questions are scaled using a 5-point scale that ranges from “slightly or not at all (1)” to “extremely (5)”. A total higher score on the positive affect questions indicates more of a positive effect while a lower score on the negative affect questions indicates less of a negative affect. In some embodiments, after treating according to the methods of the disclosure, a subject experiences a decrease in negative affect score of the PANAS, between about 5% and about 100%, for example about 5%, about 10%, about 15%, about 20%, about 25%, about 30%, about 35%, about 40%, about 45%, about 50%, about 55%, about 60%, about 65%, about 70%, about 75%, about 80%, about 85%, about 90%, about 95%, or about 100%, compared to prior to treatment. […]
# The effects of psilocybin usually started about 20 to 30 min after administration, becoming most intense in the first 90 to 120 min and gradually subsiding in about 5 to 6 hours. […] After the acute effects of study drug administration had subsided, all subjects were assessed for safety and asked to complete the following assessments: PANAS and 5D-ASC. Medications used, if any, during the study drug administration session, and adverse events were recorded. […]
# The Positive and Negative Affects Schedule (PANAS) score was also evaluated to measure the effect of psilocybin.
# mice = assay: Haloperidol-induced catalepsy model; format: in vivo, mouse
# Description: The potential anti-akinetic effect of psilocybin in mice was investigated. Psilocybin (1 mg/kg, 3 mg/kg, or 10 mg/kg), chlorstyril caffeine (CSC), or vehicle was administered one hour, 24 hours, or one week prior to administration of haloperidol.
# After administration of haloperidol, a catalepsy test was administered to each mouse. During the test, the forelimbs of the mice were placed on a catalepsy apparatus. The latency time was defined as the time necessary for the mouse to put the forelimbs on the table. The cut off time was set as 3 minutes. Catalepsy was evaluated every 45 minutes for 270 minutes after the Haloperidol injection.
# [7] = 1, 3, and 10 mg/kg, two hours prior
structure (smiles),measurement,setting,value
"CN(C)CCc1c[nH]c2cccc(OP(=O)(O)O)c12 [Psilocybin, psilocybin]",Social connectedness scale scores compared to baseline,[1]; 2 weeks,significantly increased
same,Social connectedness scale scores compared to baseline,[1]; week 4,sustained (at trend level)
same,Digit span scores compared to placebo,"healthy subjects [2]; 10 mg, Visit 5, p value 0.6432",No statistically significant difference
same,Verbal fluency score compared to placebo,"healthy subjects [2]; 10 mg, Visit 5, p-value 0.7635",No statistically significant difference
same,ERTPC versus placebo and between doses,"healthy subjects [2]; 25 mg and 10 mg, Day 7",No evidence of a difference
same,IEDYERT versus placebo and between doses,"healthy subjects [2]; 25 mg and 10 mg, Day 7",No difference in performance
same,OTSPSFC versus placebo and between doses,"healthy subjects [2]; 25 mg and 10 mg, Day 7",insufficient evidence of a difference
same,Digit span scores compared to placebo,"healthy subjects [2]; 25 mg, Visit 5, p value 0.1147",No statistically significant difference
same,Verbal fluency score compared to placebo,"healthy subjects [2]; 25 mg, Visit 5, p-value 0.8412",No statistically significant difference
same,Changes in NEO-FFI or SCL 90 scales,healthy subjects [3],no detectable effect
same,EPM: number of entries into the open arms vs vehicle,rats; [7],significant increase
same,EPM: time spent in the open arms vs vehicle,rats; [7],significant increase
same,EPM: number of entries into the open arms vs vehicle,"rats; 3 and 10 mg/kg, 24 hours prior",significantly increased
same,EPM: time spent in the open arms vs vehicle,"rats; 3 and 10 mg/kg, 24 hours prior",significantly increased
same,5D-ASC five primary dimensions compared to placebo,"healthy subjects [4]; 10 mg and 25 mg, immediately post-treatment",Differences between the placebo and psilocybin groups; also recorded: had an effect
same,5D-ASC 11 sub-scores compared to placebo,"healthy subjects [4]; each dose group (10 mg, 25 mg)",differences between each of the psilocybin dose groups and placebo were observed
same,"5D-ASC anxiety and complex imagery subscales, 25 mg compared to 10 mg",healthy subjects [4]; p≤0.001,higher mean value
same,"5D-ASC Dread of Ego Dissolution and Auditory Alteration, 25 mg versus 10 mg",healthy subjects [4]; p≤0.05,higher scores
same,Left amygdala responsivity to fearful faces,"[5]; 25 mg, 4 weeks, vs baseline (trend) and vs 1 mg",significantly decreased
same,Left amygdala responsivity to happy faces compared to baseline,[5]; 4 weeks after both 1 mg and 25 mg,Significantly increased
same,Cognitive impairment in aged mice (T-maze),"aged male C57B16 mice; 3 mg/kg chronic dose, 24 hours prior to the test",rescued cognitive impairment
same,Cognitive impairments in aged mice (T-maze),"aged male C57B16 mice; 1 and 3 mg/kg, single and chronic administration, 1 hour prior the test",rescued cognitive impairments
same,Cognitive impairment in aged mice (T-maze),"aged male C57B16 mice; chronic 3 mg/kg, 1 week prior the test",rescued in a long-lasting manner
same,Cognitive performance (T-maze spontaneous alternations) vs scopolamine alone,"male CD-1 mice; 1 mg/kg and 10 mg/kg, 24 hours prior the test",showed improvement in cognitive performance
same,Cognitive performance (T-maze spontaneous alternations) vs scopolamine alone,"male CD-1 mice; 10 mg/kg, 1 hour prior the test",showed improvement in cognitive performance
same,"PANAS positive affect, reduction as seen with placebo","healthy subjects [6]; 10 mg and 25 mg, baseline to day of dosing, p<0.03",not observed
same,"PANAS negative affect, change","healthy subjects [6]; 10 mg, baseline to day of dosing",slight decrease
same,"PANAS positive affect, change pre- to post-treatment","healthy subjects [6]; treatment effect, p=0.02",an effect of treatment was observed
same,Average descent latency time vs haloperidol alone,"mice; 1 mg/kg and 3 mg/kg, one hour prior to the test",decreased significantly
same,Descent time latency,"mice; 3 mg/kg, 1 week prior to the test",significant decrease
